According to patent publication US20160100579A1, “NEMATICIDAL N-(2-SUBSTITUTED 2-PHENYLETHYL)CARBOXAMIDES AND N-(2-SUBSTITUTED 2-PHENYLETHYL)-THIOCARBOXAMIDES” (priority 2013, published 2016):
Some entries share one result that the patent states for a list of compounds. For at least one compound, name, drawing or mass did not settle the structure.

Tested on: Cooperia curticei
Format: in vivo
Details: 100 ppm; after 5 days; 100% = all larvae killed
Experimental: Cooperia curticei—Test (COOPCU)
Solvent: dimethyl sulfoxide
To produce a suitable preparation of active compound, 10 mg of active compound are dissolved in 0.5 ml solvent, and the concentrate is diluted with “Ringer's solution” to the desired concentration.
Approximately 40 nematode larvae (Cooperia curticei) are transferred into a test tube containing the compound solution.
After 5 days percentage of larval mortality is recorded. 100% efficacy means all larvae are killed; 0% efficacy means no larvae are killed.

| Compound | activity (efficacy: larval mortality) |
| --- | --- |
| COC(CNC(=O)c1ccsc1Cl)c1ccc(Cl)cc1 (stereo not drawn) [Compound 70] | 100% |
| C#CCOC(CNC(=O)c1sccc1C)c1ccc(Cl)cc1 (stereo not drawn) [Compound 1] | 100% |
| COC(c1ccc(Cl)cc1Cl)C(C)NC(=O)c1ccccc1Cl (stereo not drawn) [Compound 30] | 100% |
| COC(c1ccc(Cl)cc1Cl)C(C)NC(=O)c1sccc1C (stereo not drawn) [Compound 58] | 100% |
| COC(c1ccc(Cl)cc1Cl)C(C)NC(=O)c1cccnc1C(F)(F)F (stereo not drawn) [Compound 39] | 100% |
| COC(c1ccc(Cl)cc1Cl)C(C)NC(=O)c1ccccc1C(F)(F)F (stereo not drawn) [Compound 35] | 100% |
| COC(c1ccc(Cl)cc1Cl)C(C)NC(=O)c1cccnc1Cl (stereo not drawn) [Compound 34] | 100% |
| COC(c1ccc(Cl)cc1)C(C)NC(=O)c1ccsc1Br (stereo not drawn) [Compound 63] | 100% |
| COC(CNC(=O)c1ccoc1I)c1ccc(Cl)cc1 (stereo not drawn) [Compound 71] | 100% |
